Measurements taken from patent publication US12435088B2, “Salicyl-adenosinemonosulfamate analogs and uses thereof” (priority 2018, dated 2025).
At least one compound was matched to its structure with a doubt left.

Tested on: PPT/PNP coupling system
Assay: Off-target control: effect on PPT/PNP coupling system of the HA-MesG assay
Assay type: biochemical
Description: The adenylation activity of H10MbtA^opt and its inhibition were evaluated using a H10MbtA^opt-optimized variation of the hydroxylamine-7-methyl-6-thioguanosine (HA-MesG) spectrophotometric assay (Wilson, D. J., et al. (2010) Anal. Biochem. 404, 56-63). The assay was carried out in a 96-well plate format as previously reported (Davis, T. D., et al. (2016) Bioorg. Med. Chem. Lett. 26, 5340-5345). The assay reaction mixture was optimized for H10MbtAopt activity. Optimization experiments included evaluation of various concentrations of Tris·HCl (and pH), hydroxylamine, MesG, ATP, NaCl, MgCl2, glycerol, reducing agents (DTT and TCEP), and detergent (IGEPAL, CHAPS, and Triton-X100). Unless otherwise indicated for specific experiments, the optimized assay reaction mixture contained the following: 50 mM Tris·HCl, pH 8.0; 3 mM MgCl2; 0.5 mM DTT; 0.1 U purine nucleoside phosphorylase (PNP); 0.04 U inorganic pyrophosphatase (PPT); 450 mM hydroxylamine; 0.4 mM MesG; 1 mM ATP; 300 μM salicylic acid; 0.01% CHAPS buffer; 7.5% ultrapure glycerol; and H10MbtA^opt at concentrations noted for specific experiments. […] The phosphorolysis of MesG was measured continuously at either regular 1-min intervals (for steady state kinetic analysis) or 25-sec intervals (for progress curves analysis) for up to 45 min, at 360 nm and 25° C. in a DTX 880 multimode detector microplate reader (Beckman Coulter, Inc.).

CN(C[C@H]1O[C@@H](n2cnc3c(N)ncnc32)[C@H](O)[C@@H]1O)S(=O)(=O)NC(=O)c1ccccc1O [4b, N—(N-(((2R,3S,4R,5R)-5-(6-Amino-9H-purin-9-yl)-3,4-dihydroxytetrahydrofuran-2-yl)-methyl)-N-methylsulfamoyl)-2-hydroxybenzamide]
Fractional velocity v1/v0 ([inhibitor] = 4 μM): 0.95 | Fractional velocity v1/v0 ([inhibitor] = 40 µM): 0.89
